In this experiment the target is Flag-FAF1 wt (UniProt Q9UNN5). In words: affinity purification with mass spectrometry; anti-Flag-FAF1 immunoprecipitants; cell line not stated.

Sequences of proteins named here, by UniProt entry; tags and fusion partners are left off.
UniProt Q9UNN5: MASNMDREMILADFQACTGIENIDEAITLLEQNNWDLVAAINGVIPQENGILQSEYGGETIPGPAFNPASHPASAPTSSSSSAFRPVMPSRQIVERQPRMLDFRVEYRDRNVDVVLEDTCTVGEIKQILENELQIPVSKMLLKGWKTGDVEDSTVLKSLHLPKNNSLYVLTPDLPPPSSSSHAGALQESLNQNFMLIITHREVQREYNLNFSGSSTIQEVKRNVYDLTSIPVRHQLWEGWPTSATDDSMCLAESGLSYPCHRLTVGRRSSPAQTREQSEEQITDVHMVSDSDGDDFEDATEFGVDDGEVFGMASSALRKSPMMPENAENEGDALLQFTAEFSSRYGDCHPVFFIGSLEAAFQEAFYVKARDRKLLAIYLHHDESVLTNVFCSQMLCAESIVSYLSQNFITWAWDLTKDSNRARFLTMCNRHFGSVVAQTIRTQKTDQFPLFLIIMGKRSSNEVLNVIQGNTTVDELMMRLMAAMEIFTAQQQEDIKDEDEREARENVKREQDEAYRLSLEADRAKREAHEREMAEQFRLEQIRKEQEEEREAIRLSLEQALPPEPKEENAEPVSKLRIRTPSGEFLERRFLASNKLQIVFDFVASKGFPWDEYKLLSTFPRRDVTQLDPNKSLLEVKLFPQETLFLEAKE

These are yes or no findings as the source states them, for the method shown. In cells and extracts the contact can be indirect. A yes stands for co-enrichment or nearness to the bait. Other partners may have been found.

1 molecule from paper PMC5414047 can be followed below.

B1: SGT1A (protein, UniProt Q9Y2Z0-2 1-333)
chain: MAAAAAGTATSQRFFQSFSDALIDEDPQAALEELTKALEQKPDDAQYYCQRAYCHILLGNYCVAVADAKKSLELNPNNSTAMLRKGICEYHEKNYAAALETFTEGQKLDSADANFSVWIKRCQEAQNGSESEVWTHQSKIKYDWYQTESQVVITLMIKNVQKNDVNVEFSEKELSALVKLPSGEDYNLKLELLHPIIPEQSTFKVLSTKIEIKLKKPEAVRWEKLEGQGDVPTPKQFVADVKNLYPSSSPYTRNWDKLVGEIKEEEKNEKLEGDAALNRLFQQIYSDGSDEVKRAMNKSFMESGGTVLSTNWSDVGKRKVEINPPDDMEWKKY
Take B1: the binding result is “binds”.
